Results are given in words; binding and its absence hold for the method and conditions named. Binding seen in cells or lysates may run through a third protein. Some results given as binding are weak or reduced against the parent protein; the word gives no strength.
Molecular target: T1, Phospholipase C β4 (mouse (endogenous in BMMs and preosteoclasts)) (UniProt Q91UZ1)
T1 sequence: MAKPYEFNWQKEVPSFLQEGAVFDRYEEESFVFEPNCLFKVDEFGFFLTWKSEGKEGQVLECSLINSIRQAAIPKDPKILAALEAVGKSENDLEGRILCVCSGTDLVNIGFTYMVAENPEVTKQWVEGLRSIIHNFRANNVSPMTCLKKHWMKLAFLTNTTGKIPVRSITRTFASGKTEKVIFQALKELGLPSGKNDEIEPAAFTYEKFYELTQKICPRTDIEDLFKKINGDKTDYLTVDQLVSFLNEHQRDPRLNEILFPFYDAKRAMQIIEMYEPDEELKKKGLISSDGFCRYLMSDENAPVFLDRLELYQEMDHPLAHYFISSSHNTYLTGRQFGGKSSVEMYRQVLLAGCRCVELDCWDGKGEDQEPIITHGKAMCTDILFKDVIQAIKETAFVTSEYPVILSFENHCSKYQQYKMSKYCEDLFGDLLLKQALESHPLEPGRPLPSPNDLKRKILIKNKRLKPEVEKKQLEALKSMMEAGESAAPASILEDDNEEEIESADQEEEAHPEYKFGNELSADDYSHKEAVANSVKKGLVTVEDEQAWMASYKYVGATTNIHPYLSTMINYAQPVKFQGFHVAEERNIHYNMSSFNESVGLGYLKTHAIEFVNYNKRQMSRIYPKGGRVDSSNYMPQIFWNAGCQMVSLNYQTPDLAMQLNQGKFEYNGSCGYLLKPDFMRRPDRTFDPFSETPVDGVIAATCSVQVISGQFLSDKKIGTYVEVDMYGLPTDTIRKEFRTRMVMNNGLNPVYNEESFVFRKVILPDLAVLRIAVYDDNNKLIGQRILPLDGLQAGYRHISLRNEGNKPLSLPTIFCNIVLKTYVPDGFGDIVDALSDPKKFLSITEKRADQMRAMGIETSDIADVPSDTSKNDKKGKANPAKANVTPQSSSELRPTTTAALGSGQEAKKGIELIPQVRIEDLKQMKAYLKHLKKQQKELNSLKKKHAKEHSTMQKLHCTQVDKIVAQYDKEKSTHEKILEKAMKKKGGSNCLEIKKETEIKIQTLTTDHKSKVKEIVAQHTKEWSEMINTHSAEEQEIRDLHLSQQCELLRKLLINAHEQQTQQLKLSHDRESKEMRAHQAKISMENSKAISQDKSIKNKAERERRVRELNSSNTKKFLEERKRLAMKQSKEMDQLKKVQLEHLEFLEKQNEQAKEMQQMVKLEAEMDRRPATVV
Assay: co-IP; lysate of serum- and cytokine-starved BMMs stimulated with RANKL (50 ng/ml) for the indicated times; IP with anti-PLCβ4 antibody; immunoblot with anti-MKK3, anti-p38 and anti-PLCβ4

binding: binds
B1: MAPK kinase 3 (enzyme, UniProt O09110 1-347)
chain: MESPAASPPASLPQTKGKSKRKKDLRISCVSKPPVSNPTPPRNLDSRTFITIGDRNFEVEADDLVTISELGRGAYGVVEKVRHAQSGTIMAVKRIRATVNTQEQKRLLMDLDINMRTVDCFYTVTFYGALFREGDVWICMELMDTSLDKFYRKVLEKNMKIPEDILGEIAVSIVRALEHLHSKLSVIHRDVKPSNVLINKEGHVKMCDFGISGYLVDSVAKTMDAGCKPYMAPERINPELNQKGYNVKSDVWSLGITMIEMAILRFPYESWGTPFQQLKQVVEEPSPQLPADQFSPEFVDFTSQCLRKNPAERMSYLELMEHPFFTLHKTKKTDIAAFVKEILGEDS

From publication PMC11873240
